Isolated mass and isolated yield data for 12 substances are collected here from patent US20250074942A1 (Calico Life Sciences LLC, priority 2022, published 2025).

The nature of the data set: general procedure: Fmoc solid-phase peptide synthesis; Tentagel M NH2 resin (30 μm bead size) with HMPB linker; HATU/DIEA; DIC/DMAP for C-terminal residue. The following applies: whole synthesis; for isolated yield: scale of the general procedure 0.72 mmol.

“NH2-4Af-Met-Ala-Ser-Ala-Ala-Cha-Arg-Leu-OH” displayed an isolated mass of 7.3 mg and an isolated yield of 39% yield.
On the same counts, the results for “NH2-Cha-hAr-Ala-Leu-hAr-Gln-Nle-Mff-hAr-OH” are 15.7 mg and 18% yield.
In the same order, the values of “NH2-hAr-Nle-hAr-Gln-Mff-Ala-Cha-hAr-Leu-OH” are 8.8 mg and 27% yield.
Substance “NH2-Cha-hAr-Ala-Leu-hAr-Gln-Met-Mff-hAr-OH” gave an isolated mass of 2.0 mg and an isolated yield of 9% yield.
In the same order, the values of “NH2-hAr-Nle-hAr-Gln-Mff-Ala-Cha-hAr-Cha-OH” are 5.9 mg and 18% yield.
“NH2-hAr-Met-Msn-Dff-Cha-Ala-Arg-Msn-Leu-OH” had an isolated mass of 8.0 mg and an isolated yield of 20% yield.
For “NH2-hAr-Nle-hAr-Gln-Mff-Ala-Cha-hAr-Aoa-OH”, the isolated mass is reported as 9.7 mg and the isolated yield worked out at 29% yield.
In the same order, the values of “NH2-hAr-Mox-hAr-Gln-Mff-Ala-Cha-hAr-Leu-OH” are 6.1 mg and 18% yield.
In the same order, the values of “NH2-hAr-Met-hAr-Gln-Mff-Ala-Cha-hAr-Nle-OH” are 1.9 mg and 6% yield.
On the same counts, the results for “NH2-hAR-Met-hAR-Gln-Mff-Ala-Cha-hAR-Leu-OH” are 7.5 mg and 31% yield.
The substance “NH2-Ala-Met-hAr-Dff-Tha-Ala-Cha-Arg-Leu-OH” yielded an isolated mass of 8.2 mg and an isolated yield of 38% yield.
On to “NH2-4Af-Met-Dff-Ser-Ala-Ala-Cha-Arg-Leu-OH”, for which the isolated mass is recorded as 4.8 mg. This substance also showed an isolated yield (theoretical amount based on synthesis scale, adjusted for crude fraction purified) of 39% yield.
